{
  "source": "PubChem BioAssay AID540276",
  "about": "(National Center for Advancing Translational Sciences (NCATS), 2011)",
  "note": "Out of some 300,000 compounds screened, about 5,400 (1.8%) were called active. Inconclusive results, whose numbers are uncertain, are shown with a selection of clear calls. Calls follow the shape of the full dose curve; tested in HEK293 cells. Where the call is inconclusive, the potency comes from a doubtful curve fit. % is scaled to controls: 0 for no effect and ±100 for the full control effect; potency is read from the fitted curve at half-maximal effect.",
  "data": [
    {"test": "qHTS for inhibitors of binding or entry into cells for Marburg Virus", "conditions": "Marburg virus pseudotyped entry inhibition, cell reporter; activity change, negative = inhibition: at 37.8 µM (top of the series) unless noted", "values": [
      {"smiles": "COc1ccc(CCNC(=O)Cn2cnc3c(nnn3Cc3ccc(C)cc3)c2=O)cc1OC", "Potency": "inconclusive: 25.9 µM [inhibitor, single point]"},
      {"smiles": "COc1ccc(-c2nc(C#N)c(NC(C)c3ccccc3)o2)cc1OC", "note": "(stereo not drawn)", "Potency": "inconclusive: 11.2 µM [inhibitor, partial curve, poor fit]"},
      {"smiles": "Cc1ccc(N=Nc2ccc(N)cc2C)c(S(N)(=O)=O)c1", "activity change, negative = inhibition": "inactive: 1.43% [at 46.1 µM]"},
      {"smiles": "COc1ccccc1/C=C\\C=N\\n1c(C2CCCCC2)n[nH]c1=S", "Potency": "inconclusive: 29.1 µM [inhibitor, single point]"},
      {"smiles": "Cc1ccc(Oc2nc3c(c(=O)n(Cc4ccccc4F)c(=O)n3C)n2C)cc1", "Potency": "inconclusive: 1.03 µM [activator, single point]"},
      {"smiles": "Cn1cccc1/C=N/n1c(-c2ccccc2)n[nH]c1=S", "Potency": "inconclusive: 14.1 µM [inhibitor, single point]"},
      {"smiles": "O=C(Nc1ccccc1)Nc1cccc(NC(=O)Nc2ccccc2)c1F", "Potency": "inconclusive: 1.58 µM [activator, partial curve, poor fit]"},
      {"smiles": "Cc1ccc(O)c(NC(=O)c2cc(-c3ccccc3)on2)c1", "Potency": "inconclusive: 35.5 µM [inhibitor, partial curve, poor fit]"},
      {"smiles": "CCN1CCN(Cc2c(O)ccc3c(=O)c(Oc4ccccc4C(C)C)c(C(F)(F)F)oc23)CC1", "activity change, negative = inhibition": "inactive: 22.4% [at 46.1 µM]"},
      {"smiles": "Cc1ccc(S(=O)(=O)Nc2ccccc2CNc2ccc(Br)cn2)cc1", "Potency": "inconclusive: 14.1 µM [inhibitor, partial curve, poor fit]"},
      {"smiles": "COc1ccc(CCC(C)NCCc2ccccc2)cc1", "note": "(stereo not drawn)", "Potency": "inconclusive: 32.6 µM [inhibitor, single point]"},
      {"smiles": "COc1ccccc1C(=O)NC(=O)COC(=O)CNC(=O)c1ccc(Cl)cc1Cl", "Potency": "inconclusive: 0.398 µM [inhibitor, partial curve, poor fit]"},
      {"smiles": "COc1ccc(-c2onc(C)c2-c2ccc3c(c2)OCCO3)c(O)c1", "Potency": "inconclusive: 20 µM [inhibitor, single point]"},
      {"smiles": "COc1ccc(CC(NC(C)=O)C(=O)NC2CCN(S(=O)(=O)c3ccc(NC(C)=O)cc3)CC2)cc1", "note": "(stereo not drawn)", "Potency": "inconclusive: 5.01 µM [activator, full curve, poor fit]"},
      {"smiles": "CC(=O)NC(c1cccc([N+](=O)[O-])c1)c1ccc2cccnc2c1O", "note": "(stereo not drawn)", "Potency": "inconclusive: 3.16 µM [inhibitor, full curve, poor fit]"},
      {"smiles": "O=C(Nc1cccc(Cl)c1)N1CCSc2cc(Cl)ccc21", "activity change, negative = inhibition": "inactive: -4.41%"},
      {"smiles": "Cc1ccc2[nH]c(=O)c(CN(CC3CCCO3)C(=S)NCc3ccco3)cc2c1", "note": "(stereo not drawn)", "Potency": "inconclusive: 35.5 µM [inhibitor, single point]"},
      {"smiles": "Cc1ccccc1OCc1nc(C#N)c(N2CCCC2)o1", "activity change, negative = inhibition": "inactive: -0.333% [at 46.1 µM]"},
      {"smiles": "Cc1occc1-c1nnc(SCC(=O)N2CCc3ccccc32)o1", "activity change, negative = inhibition": "inactive: 3.3%"},
      {"smiles": "CN1CCN(C(=O)C(C(=O)c2ccc(F)cc2)n2ccccc2=O)CC1", "note": "(stereo not drawn)", "activity change, negative = inhibition": "inactive: -2.29%"},
      {"smiles": "Cc1ccc(S(=O)(=O)Cn2nnnc2C(C(C)C)N2CCN(C(=O)c3ccco3)CC2)cc1", "note": "(stereo not drawn)", "activity change, negative = inhibition": "inactive: 3.32%"},
      {"smiles": "O=[N+]([O-])c1cccc(-c2ccc(C(=S)N3CCOCC3)o2)c1", "Potency": "inconclusive: 3.16 µM [activator, partial curve, poor fit]"},
      {"smiles": "CCOC(=O)CC1COc2ccccc2N1C(=O)c1ccc(F)cc1", "note": "(stereo not drawn)", "Potency": "inconclusive: 1.26 µM [inhibitor, full curve, poor fit]"},
      {"smiles": "CCOC(=O)c1sc(=S)n(-c2cc(F)ccc2F)c1N", "activity change, negative = inhibition": "inactive: 13.4%"},
      {"smiles": "OC(C#CCN1CCCC1)(c1ccccc1)c1cccc(F)c1", "note": "(stereo not drawn)", "activity change, negative = inhibition": "inactive: -15%"},
      {"smiles": "O=c1oc(Nc2cccc(Cl)c2)nc2ccccc12", "Potency": "inconclusive: 28.2 µM [inhibitor, single point]"},
      {"smiles": "CC(=O)c1ccccc1OC(=O)c1ccc([N+](=O)[O-])o1", "activity change, negative = inhibition": "inactive: 30.5%"},
      {"smiles": "N#C/C(=C\\c1c[nH]c2ccc(Br)cc12)c1ccccn1", "Potency": "active: 12.6 µM"},
      {"smiles": "COc1ccc([C@]23Cc4ccccc4[C@H](O2)C2=C(CCCC2=O)O3)cc1", "Potency": "inconclusive: 5.31 µM [activator, single point]"},
      {"smiles": "CCc1cc(C(=O)N/N=C/c2ccc(O)cc2O)c2ccccc2n1", "Potency": "inconclusive: 22.4 µM [inhibitor, single point]"},
      {"smiles": "CCCC(CCC)C(=O)OC1C[C@H]2CC[C@@H](C1)[N+]2(C)C", "note": "(stereo partly drawn)", "Potency": "inconclusive: 0.58 µM [inhibitor, full curve, poor fit]"},
      {"smiles": "Cc1ccc(/C=N/NC(=O)c2ccoc2C)o1", "Potency": "inconclusive: 0.82 µM [activator, full curve, poor fit]"},
      {"smiles": "COC(=O)c1ccccc1C(=O)N1CCCC(CCC(=O)NCc2ccc(F)c(F)c2)C1", "note": "(stereo not drawn)", "Potency": "inconclusive: 3.16 µM [inhibitor, partial curve, poor fit]"},
      {"smiles": "C=CCn1c(Cc2ccc(OC)cc2)nnc1SCc1nc2ccccc2c(=O)[nH]1", "Potency": "inconclusive: 0.0461 µM [inhibitor, full curve]"},
      {"smiles": "CC(N)=NCCC[C@H](N)C(=O)O", "activity change, negative = inhibition": "inactive: 2.1%"},
      {"smiles": "CC(C)COc1ccc(C(=O)Nc2ccc(NC(=O)c3ccco3)cc2)cc1", "Potency": "inconclusive: 2 µM [activator, partial curve, poor fit]"},
      {"smiles": "CCOc1ccc(NC(=S)Nc2ccc(OCc3ccccc3)cc2)cc1", "activity change, negative = inhibition": "inactive: -3.18%"},
      {"smiles": "Cc1nc2ccccc2nc1OCC(=O)NCc1ccc2c(c1)OCO2", "activity change, negative = inhibition": "inactive: -20.4%"},
      {"smiles": "CC(C)C(=O)Nc1c2c(nn1-c1ccc(F)cc1)CS(=O)(=O)C2", "activity change, negative = inhibition": "inactive: 0.48% [at 46.1 µM]"},
      {"smiles": "CCN1C(=NCc2cc(OC)c(OC)c(OC)c2)N[C@@H](c2ccccc2)[C@H](C(=O)OC)[C@H]1C", "Potency": "inconclusive: 0.266 µM [activator, partial curve, poor fit]"},
      {"smiles": "Cc1cc(C)c2c(c1)cc(C)c1nnc(SCC(=O)N3CCCc4ccccc43)n12", "activity change, negative = inhibition": "inactive: 3.75%"},
      {"smiles": "CCNC(=O)NC(=O)CSc1ccc2ccccc2c1", "Potency": "inconclusive: 35.5 µM [inhibitor, single point]"},
      {"smiles": "Oc1ccc2ccccc2c1C=Nc1ccccc1-c1nc2ccccc2[nH]1", "Potency": "inconclusive: 35.5 µM [inhibitor, single point]"},
      {"smiles": "CCc1[nH]c(=S)c(C#N)c2c1CCCC2", "Potency": "inconclusive: 2.82 µM [inhibitor, full curve]"},
      {"smiles": "COc1ccc(/C=N/NC(=O)c2ccc3ccccc3c2)cc1OS(=O)(=O)c1ccc(NC(C)=O)cc1", "Potency": "inconclusive: 29.1 µM [inhibitor, single point]"},
      {"smiles": "O=C(NCc1ccc(-n2cccc2)cc1)c1cccc(F)c1", "Potency": "inconclusive: 28.2 µM [inhibitor, single point]"},
      {"smiles": "O=C(CCc1ccccc1O)N/N=C/c1ccc(Sc2cccc3cccnc23)o1", "Potency": "inconclusive: 11.6 µM [inhibitor, single point]"},
      {"smiles": "Cc1cc(C(=O)NCc2cccs2)cs1", "activity change, negative = inhibition": "inactive: 11.9%"},
      {"smiles": "O=C(Oc1cccc2cccnc12)c1cccc([N+](=O)[O-])c1", "Potency": "inconclusive: 22.4 µM [inhibitor, single point]"},
      {"smiles": "CCc1ccccc1NC(=O)c1sc(-n2nc(C)c(Cc3ccccc3)c2C)nc1C", "Potency": "inconclusive: 6.31 µM [inhibitor, single point]"},
      {"smiles": "CCCN1C/C(=C/c2ccc3c(c2)OCO3)C(=O)/C(=C/c2ccc3c(c2)OCO3)C1", "Potency": "inconclusive: 3.16 µM [inhibitor, single point]"},
      {"smiles": "CCN(Cc1ccccc1)C(c1cc2cc(C)ccc2[nH]c1=O)c1nnnn1CCOC", "note": "(stereo not drawn)", "Potency": "inconclusive: 10 µM [inhibitor, partial curve, poor fit]"},
      {"smiles": "CCOc1ccccc1C(=O)NC(C(=O)N(C)Cc1ccc2c(c1)OCO2)C(C)C", "note": "(stereo not drawn)", "Potency": "inconclusive: 2.82 µM [inhibitor, single point]"},
      {"smiles": "O=C(Nc1ncccc1O)c1cc2ccccc2o1", "Potency": "inconclusive: 35.5 µM [inhibitor, single point]"},
      {"smiles": "Cc1ccc(CN(Cc2ccco2)C(=O)COc2cccc(C)c2C)o1", "Potency": "inconclusive: 35.5 µM [inhibitor, single point]"},
      {"smiles": "CCc1c(C)nc2[nH]nc(-c3ccccc3C)n2c1=O", "activity change, negative = inhibition": "inactive: 26.8%"},
      {"smiles": "COc1cc(/C=N/NC(=O)c2ccc(F)cc2)ccc1OC(=O)c1ccco1", "activity change, negative = inhibition": "inactive: 12.2%"},
      {"smiles": "Cc1ccc(CNc2nc3ccccc3s2)s1", "Potency": "inconclusive: 1.58 µM [inhibitor, full curve, poor fit]"},
      {"smiles": "CCCCCCCCC/C(=N\\O)c1ccccn1", "Potency": "inconclusive: 11.2 µM [inhibitor, partial curve, poor fit]"},
      {"smiles": "O=C(Cn1nnc2ccccc21)c1ccc(Br)cc1", "Potency": "inconclusive: 20 µM [activator, partial curve, poor fit]"},
      {"smiles": "Cn1cnc([N+](=O)[O-])c1S(=O)(=O)Oc1ccc(Cl)cc1", "Potency": "active: 11.2 µM"},
      {"smiles": "CC1(C)CC(=O)C(C(C2=C(O)CC(C)(C)CC2=O)c2ccco2)C(=O)C1", "note": "(stereo not drawn)", "Potency": "inconclusive: 3.55 µM [inhibitor, single point]"},
      {"smiles": "COc1cccc(Cn2c(SCc3ccc(C(=O)N4CCCCC4)cc3)nc3ccncc32)c1", "Potency": "inconclusive: 22.4 µM [inhibitor, single point]"},
      {"smiles": "COc1ccc(-n2nc(C(=O)NCC(=O)Nc3cccc(Cl)c3)c3ccccc3c2=O)cc1", "Potency": "inconclusive: 20 µM [inhibitor, single point]"},
      {"smiles": "CC1=C(C(=O)N2CCOCC2)C(c2cccc3ccccc23)NC(=S)N1", "note": "(stereo not drawn)", "Potency": "inconclusive: 1.12 µM [inhibitor, full curve, poor fit]"},
      {"smiles": "CCOC(=O)C1=C(N)c2ccccc2CC1C(C)C", "note": "(stereo not drawn)", "Potency": "inconclusive: 6.31 µM [inhibitor, single point]"},
      {"smiles": "Fc1ccc(N=C2NN=C(c3cc(F)ccc3F)CS2)cc1", "Potency": "inconclusive: 3.55 µM [inhibitor, partial curve, poor fit]"},
      {"smiles": "O=C(N/N=C/c1ccccc1Cl)c1n[nH]c2c1CCCC2", "Potency": "active: 1.3 µM"}
    ]}
  ]
}
